Measured values as given in article doi:10.1101/2021.08.11.456030.
No constants are given. Whether binding was seen depends on the method and setting. In cells and extracts the contact can be indirect. Here binding means that the protein was enriched with, or labelled near, the bait; the list need not be complete.

Target: T1, Moloney leukaemia virus 10 homologue (MOV10) (mouse (endogenous in mESCs)) (UniProt P23249)
T1 sequence: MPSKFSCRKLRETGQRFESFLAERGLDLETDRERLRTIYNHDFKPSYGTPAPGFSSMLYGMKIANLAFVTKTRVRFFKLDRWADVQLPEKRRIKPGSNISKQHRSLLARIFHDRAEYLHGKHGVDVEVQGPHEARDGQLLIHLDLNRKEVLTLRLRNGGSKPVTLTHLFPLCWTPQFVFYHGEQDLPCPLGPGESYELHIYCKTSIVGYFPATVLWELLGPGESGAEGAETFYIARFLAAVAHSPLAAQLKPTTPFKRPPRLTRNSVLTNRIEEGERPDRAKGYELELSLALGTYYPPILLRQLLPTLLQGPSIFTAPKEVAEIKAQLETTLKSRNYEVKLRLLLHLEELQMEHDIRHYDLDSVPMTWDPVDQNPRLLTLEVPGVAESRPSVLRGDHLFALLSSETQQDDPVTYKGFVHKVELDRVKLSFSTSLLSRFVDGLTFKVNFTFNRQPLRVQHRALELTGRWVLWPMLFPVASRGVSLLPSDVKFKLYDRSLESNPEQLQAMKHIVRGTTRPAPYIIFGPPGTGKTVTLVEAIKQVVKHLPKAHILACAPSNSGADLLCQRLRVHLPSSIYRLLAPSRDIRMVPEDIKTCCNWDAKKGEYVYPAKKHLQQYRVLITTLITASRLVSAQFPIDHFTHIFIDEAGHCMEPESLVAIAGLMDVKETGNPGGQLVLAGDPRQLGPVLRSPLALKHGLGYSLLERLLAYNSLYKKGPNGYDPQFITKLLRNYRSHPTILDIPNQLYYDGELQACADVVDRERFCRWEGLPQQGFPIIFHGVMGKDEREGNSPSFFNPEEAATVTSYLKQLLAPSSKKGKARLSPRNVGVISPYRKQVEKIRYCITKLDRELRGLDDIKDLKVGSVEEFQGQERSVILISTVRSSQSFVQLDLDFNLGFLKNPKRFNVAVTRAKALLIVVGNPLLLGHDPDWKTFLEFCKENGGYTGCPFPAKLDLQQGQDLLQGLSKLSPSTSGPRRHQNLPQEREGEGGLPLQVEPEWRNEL
Assay: affinity purification with mass spectrometry

B1: YTHDF2 (protein, UniProt Q91YT7 1-579)
chain: MSASSLLEQRPKGQGNKVQNGSVHQKDGLNDDDFEPYLSPQARPNNAYTAMSDSYLPSYYSPSIGFSYSLGEAAWSTGGDTAMPYLTSYGQLSNGEPHFLPDAMFGQPGALGSTPFLGQHGFNFFPSGIDFSAWGNNSSQGQSTQSSGYSSNYAYAPSSLGGAMIDGQSAFANETLNKAPGMNTIDQGMAALKLGSTEVASSVPKVVGSAVGSGSITSNIVASSSLPPATIAPPKPASWADIASKPAKQQPKLKTKNGIAGSSLPPPPIKHNMDIGTWDNKGPVAKAPSQALVQNIGQPTQGSPQPVGQQANNSPPVAQASVGQQTQPLPPPPPQPAQLSVQQQAAQPTRWVAPRNRGSGFGHNGVDGNGVGQSQAGSGSTPSEPHPVLEKLRSINNYNPKDFDWNLKHGRVFIIKSYSEDDIHRSIKYNIWCSTEHGNKRLDAAYRSMNGKGPVYLLFSVNGSGHFCGVAEMKSAVDYNTCAGVWSQDKWKGRFDVRWIFVKDVPNSQLRHIRLENNENKPVTNSRDTQEVPLEKAKQVLKIIASYKHTTSIFDDFSHYEKRQEEEESVKKERQGRGK
- binding: binds
